# Measured values published in the supplement of paper PMC11732987, “Enantioselective OTUD7B fragment discovery through chemoproteomics screening and high-throughput optimisation” (Communications Chemistry, 2025).
# Sequences of proteins named here, by UniProt entry; tags and fusion partners are left off. A change or cut given only in a name is not applied to a line headed by its entry.
# UniProt P24468: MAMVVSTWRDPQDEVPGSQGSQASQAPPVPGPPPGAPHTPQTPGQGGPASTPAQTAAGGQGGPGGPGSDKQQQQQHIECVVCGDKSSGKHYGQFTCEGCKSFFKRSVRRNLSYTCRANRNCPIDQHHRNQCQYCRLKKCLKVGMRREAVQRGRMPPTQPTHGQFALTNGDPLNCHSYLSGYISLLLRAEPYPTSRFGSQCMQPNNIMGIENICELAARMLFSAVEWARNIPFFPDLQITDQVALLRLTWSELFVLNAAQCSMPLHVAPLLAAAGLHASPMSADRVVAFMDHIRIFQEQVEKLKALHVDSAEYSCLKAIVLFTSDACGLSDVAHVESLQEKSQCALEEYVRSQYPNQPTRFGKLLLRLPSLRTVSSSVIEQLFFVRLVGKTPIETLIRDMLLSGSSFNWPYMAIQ
# UniProt P53370: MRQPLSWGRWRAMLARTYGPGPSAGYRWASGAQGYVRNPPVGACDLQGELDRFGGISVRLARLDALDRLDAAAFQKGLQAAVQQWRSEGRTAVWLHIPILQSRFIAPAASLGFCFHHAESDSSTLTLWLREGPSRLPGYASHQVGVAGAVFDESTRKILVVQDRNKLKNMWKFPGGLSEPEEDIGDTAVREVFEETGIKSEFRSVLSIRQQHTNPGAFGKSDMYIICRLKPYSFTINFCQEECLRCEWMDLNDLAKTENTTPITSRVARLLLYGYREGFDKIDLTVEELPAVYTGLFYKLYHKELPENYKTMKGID
# UniProt Q9BXB4: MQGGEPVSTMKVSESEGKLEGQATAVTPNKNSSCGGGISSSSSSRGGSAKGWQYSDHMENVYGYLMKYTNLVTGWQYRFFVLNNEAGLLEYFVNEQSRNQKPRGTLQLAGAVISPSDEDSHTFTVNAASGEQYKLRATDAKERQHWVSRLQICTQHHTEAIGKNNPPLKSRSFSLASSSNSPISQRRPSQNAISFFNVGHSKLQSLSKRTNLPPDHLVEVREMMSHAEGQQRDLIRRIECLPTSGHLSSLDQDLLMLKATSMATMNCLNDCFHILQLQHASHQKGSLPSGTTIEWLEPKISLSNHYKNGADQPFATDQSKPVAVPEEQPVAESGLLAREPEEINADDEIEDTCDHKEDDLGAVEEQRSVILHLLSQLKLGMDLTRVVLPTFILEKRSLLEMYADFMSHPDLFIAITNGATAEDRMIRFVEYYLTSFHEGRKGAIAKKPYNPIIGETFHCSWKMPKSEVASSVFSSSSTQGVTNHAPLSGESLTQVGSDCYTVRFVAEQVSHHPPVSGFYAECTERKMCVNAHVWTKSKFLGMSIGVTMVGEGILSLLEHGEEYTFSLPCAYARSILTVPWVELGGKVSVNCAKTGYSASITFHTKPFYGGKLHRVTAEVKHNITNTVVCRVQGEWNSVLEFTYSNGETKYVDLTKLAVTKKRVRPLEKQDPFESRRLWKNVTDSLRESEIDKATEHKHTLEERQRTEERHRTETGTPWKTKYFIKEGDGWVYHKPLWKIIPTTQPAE
# UniProt Q9BZ95: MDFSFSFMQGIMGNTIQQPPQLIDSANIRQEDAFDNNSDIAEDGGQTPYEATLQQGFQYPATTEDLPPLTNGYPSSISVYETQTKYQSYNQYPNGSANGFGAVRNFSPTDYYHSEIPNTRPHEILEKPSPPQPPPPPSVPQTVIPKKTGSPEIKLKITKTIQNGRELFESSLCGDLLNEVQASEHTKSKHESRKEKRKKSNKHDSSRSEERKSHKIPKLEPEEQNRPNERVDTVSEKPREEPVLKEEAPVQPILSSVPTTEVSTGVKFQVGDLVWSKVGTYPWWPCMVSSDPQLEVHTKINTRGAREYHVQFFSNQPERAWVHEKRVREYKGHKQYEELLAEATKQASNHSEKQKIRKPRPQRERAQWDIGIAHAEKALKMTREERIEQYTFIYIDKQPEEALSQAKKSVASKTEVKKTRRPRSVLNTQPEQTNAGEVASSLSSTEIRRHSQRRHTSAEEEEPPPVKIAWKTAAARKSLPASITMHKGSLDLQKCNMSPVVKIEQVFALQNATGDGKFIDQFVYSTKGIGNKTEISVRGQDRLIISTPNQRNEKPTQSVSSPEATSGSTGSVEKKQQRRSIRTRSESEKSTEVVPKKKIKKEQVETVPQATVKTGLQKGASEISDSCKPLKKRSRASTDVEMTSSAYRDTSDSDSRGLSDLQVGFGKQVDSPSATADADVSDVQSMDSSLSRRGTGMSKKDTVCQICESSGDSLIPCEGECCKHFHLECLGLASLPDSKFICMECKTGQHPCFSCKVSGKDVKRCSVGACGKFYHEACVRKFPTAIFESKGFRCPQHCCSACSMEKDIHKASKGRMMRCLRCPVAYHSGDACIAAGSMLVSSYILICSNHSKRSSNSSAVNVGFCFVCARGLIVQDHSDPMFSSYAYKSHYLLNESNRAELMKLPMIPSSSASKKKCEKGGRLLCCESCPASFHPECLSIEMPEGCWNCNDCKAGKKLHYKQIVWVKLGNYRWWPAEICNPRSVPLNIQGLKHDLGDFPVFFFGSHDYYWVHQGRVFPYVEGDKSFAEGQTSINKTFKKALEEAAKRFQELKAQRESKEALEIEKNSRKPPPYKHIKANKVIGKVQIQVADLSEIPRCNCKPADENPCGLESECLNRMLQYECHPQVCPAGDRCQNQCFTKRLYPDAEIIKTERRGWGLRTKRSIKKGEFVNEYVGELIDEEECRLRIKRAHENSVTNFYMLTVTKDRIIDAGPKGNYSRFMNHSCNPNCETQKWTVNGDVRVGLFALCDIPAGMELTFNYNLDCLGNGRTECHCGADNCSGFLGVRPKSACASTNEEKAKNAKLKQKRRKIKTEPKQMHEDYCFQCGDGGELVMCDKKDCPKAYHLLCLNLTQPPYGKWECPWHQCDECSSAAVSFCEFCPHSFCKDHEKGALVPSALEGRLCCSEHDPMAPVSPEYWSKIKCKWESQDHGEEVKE
# UniProt Q5SWX8: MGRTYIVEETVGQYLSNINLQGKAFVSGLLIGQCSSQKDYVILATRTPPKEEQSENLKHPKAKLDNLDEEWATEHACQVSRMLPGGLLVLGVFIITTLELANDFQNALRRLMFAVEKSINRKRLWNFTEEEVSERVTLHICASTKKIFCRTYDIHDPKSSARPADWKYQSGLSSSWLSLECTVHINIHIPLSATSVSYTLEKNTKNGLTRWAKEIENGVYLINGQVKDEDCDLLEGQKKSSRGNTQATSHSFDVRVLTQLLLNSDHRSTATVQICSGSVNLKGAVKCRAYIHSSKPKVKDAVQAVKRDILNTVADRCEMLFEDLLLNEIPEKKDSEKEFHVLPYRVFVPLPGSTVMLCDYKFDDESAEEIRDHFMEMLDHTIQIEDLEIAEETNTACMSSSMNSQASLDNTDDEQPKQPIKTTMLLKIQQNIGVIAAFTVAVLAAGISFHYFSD
# UniProt O15381: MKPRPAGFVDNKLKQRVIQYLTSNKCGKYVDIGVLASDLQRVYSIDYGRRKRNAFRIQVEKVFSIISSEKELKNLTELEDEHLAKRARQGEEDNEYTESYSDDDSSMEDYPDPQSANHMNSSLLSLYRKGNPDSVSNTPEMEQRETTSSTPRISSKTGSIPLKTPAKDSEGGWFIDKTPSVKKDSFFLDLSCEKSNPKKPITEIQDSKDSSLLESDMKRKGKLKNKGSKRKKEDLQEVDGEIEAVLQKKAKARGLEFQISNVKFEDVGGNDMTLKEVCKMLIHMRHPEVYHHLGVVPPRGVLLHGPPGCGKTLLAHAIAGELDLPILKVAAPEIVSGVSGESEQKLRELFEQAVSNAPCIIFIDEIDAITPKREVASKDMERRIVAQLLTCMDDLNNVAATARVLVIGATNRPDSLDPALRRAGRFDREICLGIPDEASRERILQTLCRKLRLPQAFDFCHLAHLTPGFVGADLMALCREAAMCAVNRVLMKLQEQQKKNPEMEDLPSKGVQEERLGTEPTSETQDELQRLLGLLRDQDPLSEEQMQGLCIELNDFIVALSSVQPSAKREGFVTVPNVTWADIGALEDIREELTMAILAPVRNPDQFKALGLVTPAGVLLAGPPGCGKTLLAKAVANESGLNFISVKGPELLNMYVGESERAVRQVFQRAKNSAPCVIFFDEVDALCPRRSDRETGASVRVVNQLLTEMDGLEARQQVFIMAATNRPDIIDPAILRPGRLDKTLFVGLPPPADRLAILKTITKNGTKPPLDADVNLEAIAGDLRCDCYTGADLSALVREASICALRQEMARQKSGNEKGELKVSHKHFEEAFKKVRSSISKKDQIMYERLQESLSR
# UniProt O15118: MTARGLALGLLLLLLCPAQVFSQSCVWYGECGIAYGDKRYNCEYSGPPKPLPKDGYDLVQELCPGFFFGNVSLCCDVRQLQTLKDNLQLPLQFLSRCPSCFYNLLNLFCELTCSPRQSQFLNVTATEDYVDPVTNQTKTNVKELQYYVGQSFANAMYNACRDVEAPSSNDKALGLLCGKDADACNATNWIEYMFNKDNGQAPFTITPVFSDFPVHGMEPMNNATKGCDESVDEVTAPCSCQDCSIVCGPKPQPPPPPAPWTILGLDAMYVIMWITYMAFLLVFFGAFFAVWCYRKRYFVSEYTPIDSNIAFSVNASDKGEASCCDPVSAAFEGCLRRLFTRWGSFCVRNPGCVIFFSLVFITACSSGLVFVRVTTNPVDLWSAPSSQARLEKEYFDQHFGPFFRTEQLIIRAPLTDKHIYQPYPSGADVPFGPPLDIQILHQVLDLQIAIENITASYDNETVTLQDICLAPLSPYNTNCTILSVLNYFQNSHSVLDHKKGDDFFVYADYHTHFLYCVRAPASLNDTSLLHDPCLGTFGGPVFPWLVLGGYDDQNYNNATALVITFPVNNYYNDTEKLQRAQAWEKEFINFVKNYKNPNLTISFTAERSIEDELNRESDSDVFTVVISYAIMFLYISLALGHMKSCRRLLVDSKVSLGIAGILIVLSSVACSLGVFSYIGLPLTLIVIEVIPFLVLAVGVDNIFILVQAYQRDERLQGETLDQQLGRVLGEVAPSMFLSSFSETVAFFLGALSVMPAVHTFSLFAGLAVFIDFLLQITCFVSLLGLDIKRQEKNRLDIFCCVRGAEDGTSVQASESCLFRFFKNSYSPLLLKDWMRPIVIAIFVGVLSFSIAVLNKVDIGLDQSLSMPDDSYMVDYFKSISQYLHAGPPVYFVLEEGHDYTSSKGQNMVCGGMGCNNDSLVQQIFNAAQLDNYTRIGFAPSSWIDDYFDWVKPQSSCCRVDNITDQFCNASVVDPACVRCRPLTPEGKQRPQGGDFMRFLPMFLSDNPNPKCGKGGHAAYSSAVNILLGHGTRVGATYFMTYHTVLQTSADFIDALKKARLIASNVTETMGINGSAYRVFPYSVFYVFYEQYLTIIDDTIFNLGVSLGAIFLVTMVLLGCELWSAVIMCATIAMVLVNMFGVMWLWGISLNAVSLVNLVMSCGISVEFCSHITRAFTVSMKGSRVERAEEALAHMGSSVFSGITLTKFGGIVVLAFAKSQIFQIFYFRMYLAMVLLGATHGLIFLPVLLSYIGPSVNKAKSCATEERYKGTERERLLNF
# UniProt Q9BW27: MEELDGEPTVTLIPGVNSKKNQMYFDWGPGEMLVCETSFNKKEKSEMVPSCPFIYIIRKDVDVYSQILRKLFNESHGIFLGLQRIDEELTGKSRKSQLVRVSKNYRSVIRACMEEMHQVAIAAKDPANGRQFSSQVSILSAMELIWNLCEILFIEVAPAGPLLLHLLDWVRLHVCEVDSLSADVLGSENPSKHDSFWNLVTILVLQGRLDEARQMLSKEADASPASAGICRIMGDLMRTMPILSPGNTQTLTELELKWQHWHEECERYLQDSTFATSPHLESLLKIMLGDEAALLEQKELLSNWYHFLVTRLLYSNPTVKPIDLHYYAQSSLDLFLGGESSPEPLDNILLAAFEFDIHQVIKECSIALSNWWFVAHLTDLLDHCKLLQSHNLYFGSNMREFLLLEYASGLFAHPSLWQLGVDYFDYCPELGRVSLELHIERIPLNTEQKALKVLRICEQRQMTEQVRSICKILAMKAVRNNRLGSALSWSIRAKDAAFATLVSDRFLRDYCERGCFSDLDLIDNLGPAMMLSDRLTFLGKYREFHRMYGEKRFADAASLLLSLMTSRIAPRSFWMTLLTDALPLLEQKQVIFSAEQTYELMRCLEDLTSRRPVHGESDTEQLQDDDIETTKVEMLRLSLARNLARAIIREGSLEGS
# UniProt Q8WTW4: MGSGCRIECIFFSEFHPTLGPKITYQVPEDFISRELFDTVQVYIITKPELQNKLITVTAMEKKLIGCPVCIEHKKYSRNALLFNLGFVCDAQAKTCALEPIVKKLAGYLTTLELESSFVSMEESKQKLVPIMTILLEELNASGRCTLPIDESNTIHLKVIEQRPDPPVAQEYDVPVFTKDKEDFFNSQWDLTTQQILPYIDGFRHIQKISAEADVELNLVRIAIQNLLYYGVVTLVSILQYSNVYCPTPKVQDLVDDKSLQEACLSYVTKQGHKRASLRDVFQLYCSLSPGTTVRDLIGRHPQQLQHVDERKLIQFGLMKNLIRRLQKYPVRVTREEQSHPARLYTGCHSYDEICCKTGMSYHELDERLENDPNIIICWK
# The list shows a part of the results. The data scatter; read single values as rough.
# Assays:
# [1] = compound: ClCC(=O)N[C@@H]1CCCc2ccccc12; assay: log2 mean competition ratio of IA-DTB cysteine labelling (DMSO/compound) (log2 ratio); higher = stronger cysteine engagement by compound; details: treatment time: 4 h, cell line lysate: HEK293T
# Protocol: (§1)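 IA-DTB competitive cysteine chemoproteomics in HEK293T RIPA lysate. Lysates were treated with compound 29 or 30 at 50 or 200 µM for 4 h, then IA-DTB (500 µM, 1 h), trypsin-digested, NeutrAvidin-enriched and analysed by diaPASEF. Competition ratio = intensity DMSO / intensity compound (n=4 treated, n=64 DMSO); binding: mean log2 CR ≥ 1 and p ≤ 0.05 plus QC filters. Target is the cysteine site.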
# [2] = compound: ClCC(=O)N[C@H]1CCCc2ccccc12; assay: as above; details: treatment time: 4 h, cell line lysate: HEK293T
# Protocol: as §1
Target,log2 mean competition ratio ([1]; 50 µM),log2 mean competition ratio ([1]; 200 µM),log2 mean competition ratio ([2]; 50 µM),log2 mean competition ratio ([2]; 200 µM)
NPEPPS C339 (UniProt P55786),0.255,1.52,-0.0898,0.234
OGA C631 (UniProt O60502),0.196,-0.00705,0.0842,-0.0629
NTPCR C101 (UniProt Q9BSD7),-0.0822,0.113,0.000876,0.194
NR2F2 C121 (UniProt P24468),0.305,-0.249,0.374,-0.299
NUDT6 C44 (UniProt P53370),-0.326,0.136,-0.171,0.157
NXT2;NXT1 C15;(C14),0.0849,0.0185,0.121,0.000339
OSBPL11 C34 (UniProt Q9BXB4),0.0264,-0.0206,-0.0222,-0.133
NSD3 C627 (UniProt Q9BZ95),-0.412,0.0907,-0.116,0.0723
ODR4 C275 (UniProt Q5SWX8),-0.0951,-0.232,0.0976,-0.441
NUP133 C641 (UniProt Q8WUM0),-0.0828,0.00197,0.261,-0.081
NTMT1 C195,0.354,0.414,0.293,0.111
OGFOD3 C90 (UniProt Q6PK18),-0.0107,0.228,-0.573,0.153
NR3C2 C308,0.18,0.0765,-0.0869,-0.028
NVL C484 (UniProt O15381),0.12,0.0974,0.44,-0.0379
NPC1 C979 (UniProt O15118),0.382,0.0732,0.0408,-0.187
NUP85 C230 (UniProt Q9BW27),-0.0841,0.296,0.0396,0.352
NPRL2 C96 (UniProt Q8WTW4),0.101,-0.0597,0.368,0.303

# Some of the entries so far, with tabs.
Target	log2 mean competition ratio ([1]; 50 µM)	log2 mean competition ratio ([1]; 200 µM)	log2 mean competition ratio ([2]; 50 µM)	log2 mean competition ratio ([2]; 200 µM)
NTPCR C101 (UniProt Q9BSD7)	-0.0822	0.113	0.000876	0.194
NR2F2 C121 (UniProt P24468)	0.305	-0.249	0.374	-0.299
